Results are given in words; binding and its absence hold for the method and conditions named. In cells and extracts the contact can be indirect. Some entries that bind do so weakly or less than the wild type.
Columns and labels:
[1] = target: NIPBL (mouse (endogenous in mESCs)) (UniProt Q6KCD5); experiment: co-IP; IP of SMC3 and NIPBL from WT siGLO and Pds5a-/- siPds5b mESC nuclear lysates (Benzonase-digested), high stringency conditions; antibody on Protein G Dynabeads; western blot
[2] = target: SMC3 (mouse (endogenous in mESCs)) (UniProt Q9CW03); experiment: as above

The chains behind the UniProt entries cited, without tags or fusion partners.
UniProt Q6KCD5: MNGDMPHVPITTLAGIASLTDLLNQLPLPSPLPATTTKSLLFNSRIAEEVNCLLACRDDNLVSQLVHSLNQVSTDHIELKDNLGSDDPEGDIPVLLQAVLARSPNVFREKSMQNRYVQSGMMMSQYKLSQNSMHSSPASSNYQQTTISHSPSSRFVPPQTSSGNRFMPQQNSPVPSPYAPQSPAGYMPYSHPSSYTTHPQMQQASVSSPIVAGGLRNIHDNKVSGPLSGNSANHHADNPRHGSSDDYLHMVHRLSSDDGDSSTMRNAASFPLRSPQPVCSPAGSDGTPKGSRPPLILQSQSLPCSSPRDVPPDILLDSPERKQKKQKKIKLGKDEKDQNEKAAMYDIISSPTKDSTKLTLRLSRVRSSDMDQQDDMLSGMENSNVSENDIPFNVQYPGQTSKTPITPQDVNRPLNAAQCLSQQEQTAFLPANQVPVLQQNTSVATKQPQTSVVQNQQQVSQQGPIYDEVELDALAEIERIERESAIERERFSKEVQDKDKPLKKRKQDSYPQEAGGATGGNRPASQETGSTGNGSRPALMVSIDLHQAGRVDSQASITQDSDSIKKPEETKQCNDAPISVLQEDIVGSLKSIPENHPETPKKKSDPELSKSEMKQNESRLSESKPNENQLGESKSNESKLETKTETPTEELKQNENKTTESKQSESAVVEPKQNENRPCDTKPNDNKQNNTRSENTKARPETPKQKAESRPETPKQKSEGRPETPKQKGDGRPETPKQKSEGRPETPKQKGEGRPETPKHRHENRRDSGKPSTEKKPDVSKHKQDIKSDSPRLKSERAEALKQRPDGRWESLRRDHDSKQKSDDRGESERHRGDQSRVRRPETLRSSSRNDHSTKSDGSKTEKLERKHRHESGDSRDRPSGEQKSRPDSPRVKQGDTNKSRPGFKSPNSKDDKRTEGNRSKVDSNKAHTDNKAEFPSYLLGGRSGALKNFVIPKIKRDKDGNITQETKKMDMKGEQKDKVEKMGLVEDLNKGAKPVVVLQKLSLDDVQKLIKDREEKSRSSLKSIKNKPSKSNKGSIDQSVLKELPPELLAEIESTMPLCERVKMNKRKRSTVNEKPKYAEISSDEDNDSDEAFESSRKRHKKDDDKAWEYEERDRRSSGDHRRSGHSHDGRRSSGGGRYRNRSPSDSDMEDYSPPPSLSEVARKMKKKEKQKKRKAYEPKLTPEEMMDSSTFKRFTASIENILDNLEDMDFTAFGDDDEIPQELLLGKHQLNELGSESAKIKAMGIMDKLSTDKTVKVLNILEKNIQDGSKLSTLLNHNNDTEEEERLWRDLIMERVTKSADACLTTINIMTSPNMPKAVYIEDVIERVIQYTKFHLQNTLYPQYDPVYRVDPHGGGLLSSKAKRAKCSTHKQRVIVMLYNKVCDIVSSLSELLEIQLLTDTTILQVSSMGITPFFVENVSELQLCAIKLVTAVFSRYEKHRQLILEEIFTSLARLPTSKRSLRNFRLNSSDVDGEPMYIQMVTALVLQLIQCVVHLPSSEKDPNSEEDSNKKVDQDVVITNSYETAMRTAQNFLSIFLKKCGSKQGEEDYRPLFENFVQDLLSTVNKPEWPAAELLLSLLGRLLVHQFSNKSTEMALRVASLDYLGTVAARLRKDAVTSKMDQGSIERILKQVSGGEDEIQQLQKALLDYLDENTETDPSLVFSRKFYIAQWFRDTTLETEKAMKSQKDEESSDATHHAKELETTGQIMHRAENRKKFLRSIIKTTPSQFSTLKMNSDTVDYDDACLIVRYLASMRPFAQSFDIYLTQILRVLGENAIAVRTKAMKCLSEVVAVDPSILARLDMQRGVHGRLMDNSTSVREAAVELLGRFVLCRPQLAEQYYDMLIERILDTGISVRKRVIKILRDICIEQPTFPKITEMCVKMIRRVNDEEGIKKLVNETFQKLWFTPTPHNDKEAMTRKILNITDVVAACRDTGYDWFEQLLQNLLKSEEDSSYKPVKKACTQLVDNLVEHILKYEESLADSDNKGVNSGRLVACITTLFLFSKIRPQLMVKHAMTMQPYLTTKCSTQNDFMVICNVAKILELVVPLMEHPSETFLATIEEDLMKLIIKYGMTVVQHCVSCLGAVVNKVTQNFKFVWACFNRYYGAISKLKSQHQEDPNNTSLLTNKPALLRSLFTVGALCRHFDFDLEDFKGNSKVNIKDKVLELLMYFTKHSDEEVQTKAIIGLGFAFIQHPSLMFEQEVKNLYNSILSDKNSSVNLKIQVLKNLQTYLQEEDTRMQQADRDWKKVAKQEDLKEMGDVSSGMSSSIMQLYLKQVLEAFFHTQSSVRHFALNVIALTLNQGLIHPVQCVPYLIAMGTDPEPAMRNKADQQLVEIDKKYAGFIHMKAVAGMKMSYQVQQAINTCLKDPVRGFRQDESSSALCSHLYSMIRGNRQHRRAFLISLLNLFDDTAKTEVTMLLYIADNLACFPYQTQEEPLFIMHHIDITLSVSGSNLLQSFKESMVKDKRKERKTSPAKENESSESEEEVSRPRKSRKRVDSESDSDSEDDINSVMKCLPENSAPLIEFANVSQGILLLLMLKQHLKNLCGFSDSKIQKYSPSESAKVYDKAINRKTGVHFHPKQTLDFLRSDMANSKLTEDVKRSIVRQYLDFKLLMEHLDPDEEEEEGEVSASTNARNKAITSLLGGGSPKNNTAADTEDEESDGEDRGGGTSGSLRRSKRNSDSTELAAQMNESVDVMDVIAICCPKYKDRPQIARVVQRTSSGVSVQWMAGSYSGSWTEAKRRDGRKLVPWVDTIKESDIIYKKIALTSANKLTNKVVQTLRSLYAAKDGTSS
UniProt Q9CW03: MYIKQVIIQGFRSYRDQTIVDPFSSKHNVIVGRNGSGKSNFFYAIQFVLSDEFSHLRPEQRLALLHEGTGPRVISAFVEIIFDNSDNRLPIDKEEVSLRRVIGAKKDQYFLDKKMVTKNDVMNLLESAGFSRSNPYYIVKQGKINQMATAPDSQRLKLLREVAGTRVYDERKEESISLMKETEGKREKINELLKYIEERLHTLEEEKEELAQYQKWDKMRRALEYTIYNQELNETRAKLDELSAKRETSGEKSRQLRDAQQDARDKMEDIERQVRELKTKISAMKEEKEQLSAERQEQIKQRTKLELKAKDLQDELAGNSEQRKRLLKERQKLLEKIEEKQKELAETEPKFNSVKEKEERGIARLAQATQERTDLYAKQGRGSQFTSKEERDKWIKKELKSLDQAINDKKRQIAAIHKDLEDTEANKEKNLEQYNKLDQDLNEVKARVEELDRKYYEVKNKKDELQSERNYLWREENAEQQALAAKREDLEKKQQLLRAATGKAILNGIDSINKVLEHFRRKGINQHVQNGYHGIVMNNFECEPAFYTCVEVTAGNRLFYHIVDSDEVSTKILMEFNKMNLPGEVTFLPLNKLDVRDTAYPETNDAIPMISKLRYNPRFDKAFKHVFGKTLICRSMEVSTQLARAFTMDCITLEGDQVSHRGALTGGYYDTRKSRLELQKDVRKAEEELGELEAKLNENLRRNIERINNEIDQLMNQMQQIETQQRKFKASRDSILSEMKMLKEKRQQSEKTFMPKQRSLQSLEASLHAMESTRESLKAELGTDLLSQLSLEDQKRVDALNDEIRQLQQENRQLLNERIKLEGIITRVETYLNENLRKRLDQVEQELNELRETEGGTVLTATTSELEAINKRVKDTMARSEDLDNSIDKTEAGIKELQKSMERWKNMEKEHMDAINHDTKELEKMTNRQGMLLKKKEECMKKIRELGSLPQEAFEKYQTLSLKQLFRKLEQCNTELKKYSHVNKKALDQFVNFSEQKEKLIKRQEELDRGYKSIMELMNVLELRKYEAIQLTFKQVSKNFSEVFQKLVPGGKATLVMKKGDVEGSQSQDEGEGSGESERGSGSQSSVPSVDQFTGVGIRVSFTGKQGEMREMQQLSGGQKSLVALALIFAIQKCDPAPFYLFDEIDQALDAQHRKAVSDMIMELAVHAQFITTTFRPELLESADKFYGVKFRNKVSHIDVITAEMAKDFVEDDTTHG

Row | Binder | binding [1] | binding [2]
1 | PDS5A (protein, UniProt Q6A026 1-1332) MDFTQPKPATALCGVVSADGKIAYPPGVKEITDKITTDEMIKRLKMVVKTFMDMDQDSEDEKQQYLPLALHLASEFFLRNPNKDVRLLVACCLADIFRIYAPEAPYTSHDKLKDIFLFITRQLKGLEDTKSPQFNRYFYLLENLAWVKSYNICFELEDCNEIFIQLFRTLFSVINNSHNTKVQMHMLDLMSSIIMEGDGVTQELLDSILINLIPAHKNLNKQSFDLAKVLLKRTVQTIEACIANFFNQVLVLGRSSVSDLSEHVFDLIQELFAIDPQLLLSVMPQLEFKLKSNDGEERLAVVRLLAKLFGSKDSDLATQNRPLWQCFLGRFNDIHVPVRLESVKFASHCLMNHPDLAKDLTEYLKVRSHDPEEAIRHDVIVTIITAAKRDLALVNDQLLGFVRERTLDKRWRVRKEAMMGLAQLYKKYCLHGEAGKEAAEKVSWIKDKLLHIYYQNSIDDKLLVEKIFAQYLVPHNLETEERMKCLYYLYASLDPNAVKALNEMWKCQNMLRSHVRELLDLHKQPTSEANCSAMFGKLMTIAKNLPDPGKAQDFVKKFNQVLGDDEKLRSQLELLISPTCSCKQADVCVREIARKLANPKQPTNPFLEMVKFLLERIAPVHIDSEAISALVKLMNKSIEGTADDEEEGVSPDSAIRSGLELLKVLSFTHPTSFHSAETYESLLQCLRMEDDKVAEAAIQIFRNTGHKIETDLPQIRSTLIPILHQKAKRGTPHQAKQAVHCIHAIFSNKEVQLAQIFEPLSRSLNADVPEQLITPLVSLGHISMLAPDQFASPMKSVVANFIVKDLLMNDRSTGEKNGKLWSPDEEVSPEVLAKVYLLRLLVRWLLGMKNNQSKSANSTLRLLSAMLVSEGDLTEQKRISKSDMSRLRLAAGSAIMKLAQEPCYHEIITPEQFQLCALVINDECYQVRQIFAQKLHKALVKLLLPLEYMAIFALCAKDPVKERRAHARQCLLKNISIRREYIKQNPMATEKLLSLLPEYVVPYMIHLLAHDPDFTRSQDVDQLRDIKECLWFMLEVLMTKNENNSHAFMKKMAENIKLTRDAQSPDESKTNEKLYTVCDVALCVINSKSALCNADSPKDPVLPMKFFTQPEKDFCNDKSYISEETRVLLLTGKPKPTGVLGTVNKPLSATGRKPYVRSAGTETGSNINANSELSPSAGSRSREQSSEASETGVSENEENPVRIISVTPVKNIDTVKNKEINSDQSTQGNISSDRGKKRIVTAAGAENIQKPDEKVDESGPPAPSKPRRGRRPKSESQGNATKNDDLNKPVSKGRKRAAGSQESLEAGNAKAPKLQDGAKKAVPAERQIDLQR | binds | –
2 | CTCF (protein, UniProt Q61164 1-736) MEGEAVEAIVEESETFIKGKERKTYQRRREGGQEEDACHLPQNQTDGGEVVQDVNSSVQMVMMEQLDPTLLQMKTEVMEGTVAPEAEAAVDDTQIITLQVVNMEEQPINIGELQLVQVPVPVTVPVATTSVEELQGAYENEVSKEGLAESEPMICHTLPLPEGFQVVKVGANGEVETLEQGELPPQEDSSWQKDPDYQPPAKKTKKTKKSKLRYTEEGKDVDVSVYDFEEEQQEGLLSEVNAEKVVGNMKPPKPTKIKKKGVKKTFQCELCSYTCPRRSNLDRHMKSHTDERPHKCHLCGRAFRTVTLLRNHLNTHTGTRPHKCPDCDMAFVTSGELVRHRRYKHTHEKPFKCSMCDYASVEVSKLKRHIRSHTGERPFQCSLCSYASRDTYKLKRHMRTHSGEKPYECYICHARFTQSGTMKMHILQKHTENVAKFHCPHCDTVIARKSDLGVHLRKQHSYIEQGKKCRYCDAVFHERYALIQHQKSHKNEKRFKCDQCDYACRQERHMIMHKRTHTGEKPYACSHCDKTFRQKQLLDMHFKRYHDPNFVPAAFVCSKCGKTFTRRNTMARHADNCAGPDGVEGENGGETKKSKRGRKRKMRSKKEDSSDSEENAEPDLDDNEEEEEPAVEIEPEPEPQPQPPPPPQPVAPAPPPAKKRRGRPPGRTNQPKQNQPTAIIQVEDQNTGAIENIIVEVKKEPDAEPAEGEEEEAQAATTDAPNGDLTPEMILSMMDR | binds | –
3 | WAPL (protein, UniProt Q65Z40 1-1200) MTSRFGKTYSRKGGNGSSKFDEVFSNKRTTLSTKWGETTFMAKLGQKRPNFKPDIQEIPKKPKVEEEDTGDPFGFDSDDESLPVSSKNLAQGKGSSYSESSEAAQLEEVTSVFEANSKCSHVVGEDSFASDRCLLVEDTLIGKEKSISRIPEDNANKSSCTKLLTSDKVENFSEEHEKNSHHFHKNAEDSTKKPNAETAVASEYKADETKETNDTWNSQSGKRTESPSESCPVKGSVRTGLYEWDNDFEDIRSEDCILSLDNESLLEMKDEDLKNRIGGLENLNETFEEDIIQSVLRPSNCRTYCRANKARSSQGASNFDKLMDGTSQSLAKANSESSKDGLNQAKKGSASCGTSFRGTVGRTRDYTVLHPSCLSVCNVTIQDTMERSMDEFTASTPADLGEAGRLRKKADIATSKTTTRFRPSNTKSKKDVKLEFFGFEDHDETGGDEGGSGSSNYKIKYFGFDDLSESEDDDDDDCQVERKKDKKRTKTAPSPSQQPPPESSDNSQDSQSSTNNAENLDFTEDLPGVPESVKKPISKQGDKSKENTRKIFSGPKRSPTKAVYNARHWNHPDSEELPGPPIAKPQRVTVRLSSKEPNQKDDGVFKAPAPPLKVIKTVTIPTQPYQEIVTALKCRKEDKELYTVVQHVKHFNDVVEFGENQEFTDDIEYLLSGLKSTQPLNTRCLSVISLATKCAMPSFRMHLRAHGMVAMVFKTLDDSQHHQNLSLCTAALMYILSRDRLNMDLDRASLDLMIRLLELEQDASSAKLLNEKDMNKIKEKIRRLCETVHNKHLDLENITTGHLAMETLLSLTSKRAGDWFKEELRLLGGLDHIVDKVKECVDHLSRDDEDEEKLVASLWGAERCLRVLESVTVHNPENQSYLIAYKDSQLIISSAKALQHCEDLIQQYNRAENSICVADSNPLPYQNVTNHVGKAVEDCMRAIIGVLLNLTNDNEWGSTKTGEQEGLIGTAMNCVLQVPKYLPQEQRFDIRVLGLGLLINLVEYSARNRHCLVNMQTSCSFDSSFSSGEGDHSLRLAGQVHAVQALVQLFLERERAAQLAESKTDELIKDAPTTQHDKSGEWQETSGEIQWVSTEKTDGAEEKQKKEEEDEELDLNKALQHAGKHMEDCIVASYTALLLGCLCQESPINVTTVREYLPEGDFSIMTEMLKKFLSFMNLTCAVGTTGQKSISRVIEYLEHC | – | binds

Reference: PMC9392266
